Measured values taken from patent US5580760, “FUSE binding protein and cDNA therefor” (The United States of America as represented by the …).

Assays:
[1] = target: FBP (DROME), purified from HL60 cells (Homo sapiens) (UniProt Q96AE4); experiment: competition with a labelled probe; details: 25 ng competitor, purified native protein
[2] = target: GST-FBP full length (Homo sapiens) (UniProt Q96AE4); experiment: competition with a labelled probe; details: 25 ng competitor, purified recombinant protein, protein details: N-terminal GST
[3] = target: GST-FBP(145-511) (Homo sapiens) (UniProt Q96AE4); experiment: EMSA; details: purified recombinant protein, protein details: N-terminal GST (pGEX-2T), E. coli
[4] = target: FBP (DROME), purified from HL60 cells (Homo sapiens) (UniProt Q96AE4); experiment: EMSA; details: purified native protein; label: 5'-32P
[5] = target: T1, GST-FBP 278-511 insertion mutant 6 insertion GIPR after 343 (Homo sapiens) (UniProt Q96AE4); experiment: EMSA; details: reduced binding; purified recombinant protein; protein details: N-terminal GST, C-terminal KEIEQKVQE; label: 5'-32P
T1 sequence: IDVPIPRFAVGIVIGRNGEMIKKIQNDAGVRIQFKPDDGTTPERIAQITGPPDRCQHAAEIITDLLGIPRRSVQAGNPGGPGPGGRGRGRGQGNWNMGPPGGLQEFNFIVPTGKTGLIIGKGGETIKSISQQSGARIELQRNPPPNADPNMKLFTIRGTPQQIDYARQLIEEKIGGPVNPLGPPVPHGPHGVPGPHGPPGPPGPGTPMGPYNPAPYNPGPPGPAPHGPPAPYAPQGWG

[6] = target: GST-FBP full length (Homo sapiens) (UniProt Q96AE4); experiment: EMSA; details: purified recombinant protein; protein details: N-terminal GST; label: 5'-32P
[7] = competes for FUSE binding, variant of FUSE
[8] = no significant competition, variant of FUSE
[9] = more divergent oligos did not compete significantly, variant of FUSE

Does “GATCACAAAATAAAAAATGGACGCCGAATATAG (double strand) [Mut B]” bind [1, 7]?
Result: binds

Does “GATCACAAAATAAAAAATGGACGCCGAATATAG (double strand) [Mut B]” bind [2, 7]?
Result: binds

Which results are given for “GATCACAACTACGTGCTAGGACGCCGAATATAG (double strand) [Mut A]”?
binding result [1, 8]: no binding; binding result [2, 8]: no binding

Which results are given for “AATTCTCCTCCCCACCTTCCCCACCCTCCCCA (double strand) [CTE]”?
binding result [3]: no binding; binding result ([1]; no significant competition): no binding; binding result ([2]; no significant competition): no binding

What does the source list for “GATCTGACGTCATGACTGACGTCATGACTGACGTCATCA (double strand) [CRE]”?
binding result [3]: no binding; binding result ([1]; no significant competition): no binding; binding result ([2]; no significant competition): no binding

Does “GATCACAACTACGTGCTAGGCGAGGGAATATAG (double strand) [Mut C]” bind [1, 9]?
Result: no binding

Does “GATCACAACTACGTGCTAGGCGAGGGAATATAG (double strand) [Mut C]” bind [2, 9]?
Result: no binding

What does the source list for “GATCACAAAATAAAAAATCCCGAGGGAATATAG (double strand) [FUSE]”?
binding result [4]: binds; binding result [5]: binds more weakly; binding result [6]: binds; binding result ([3]; 25 mM Tris, 200 mM glycine, 1 mM EDTA, poly(dI:dC), room temperature, label: 5'-32P): binds

For some of these results: A weaker result is weaker than the reference pair of the same experiment. For some of these results: Protein sequences can lack the tags named with them. For some of these results: Construct, isoform or probe ends are uncertain for at least one entry. For some of these results: No signal at the amounts used counts as a negative.
